Assay results published in the supplement of paper PMC6411743.
± gives the standard deviation of the averaged measurements. Only a part is listed here, and it is no random draw.

Sequences of proteins named here, by UniProt entry; tags and fusion partners are left off. A change or cut given only in a name is not applied to a line headed by its entry.
UniProt Q15404: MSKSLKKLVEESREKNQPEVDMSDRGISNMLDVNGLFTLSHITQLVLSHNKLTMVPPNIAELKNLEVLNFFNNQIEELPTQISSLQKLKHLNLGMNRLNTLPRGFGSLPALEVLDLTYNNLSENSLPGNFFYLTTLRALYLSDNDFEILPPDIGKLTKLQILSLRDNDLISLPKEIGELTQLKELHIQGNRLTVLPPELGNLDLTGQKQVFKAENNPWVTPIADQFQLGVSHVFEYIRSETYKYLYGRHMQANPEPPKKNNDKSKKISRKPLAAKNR
UniProt Q2TAL8: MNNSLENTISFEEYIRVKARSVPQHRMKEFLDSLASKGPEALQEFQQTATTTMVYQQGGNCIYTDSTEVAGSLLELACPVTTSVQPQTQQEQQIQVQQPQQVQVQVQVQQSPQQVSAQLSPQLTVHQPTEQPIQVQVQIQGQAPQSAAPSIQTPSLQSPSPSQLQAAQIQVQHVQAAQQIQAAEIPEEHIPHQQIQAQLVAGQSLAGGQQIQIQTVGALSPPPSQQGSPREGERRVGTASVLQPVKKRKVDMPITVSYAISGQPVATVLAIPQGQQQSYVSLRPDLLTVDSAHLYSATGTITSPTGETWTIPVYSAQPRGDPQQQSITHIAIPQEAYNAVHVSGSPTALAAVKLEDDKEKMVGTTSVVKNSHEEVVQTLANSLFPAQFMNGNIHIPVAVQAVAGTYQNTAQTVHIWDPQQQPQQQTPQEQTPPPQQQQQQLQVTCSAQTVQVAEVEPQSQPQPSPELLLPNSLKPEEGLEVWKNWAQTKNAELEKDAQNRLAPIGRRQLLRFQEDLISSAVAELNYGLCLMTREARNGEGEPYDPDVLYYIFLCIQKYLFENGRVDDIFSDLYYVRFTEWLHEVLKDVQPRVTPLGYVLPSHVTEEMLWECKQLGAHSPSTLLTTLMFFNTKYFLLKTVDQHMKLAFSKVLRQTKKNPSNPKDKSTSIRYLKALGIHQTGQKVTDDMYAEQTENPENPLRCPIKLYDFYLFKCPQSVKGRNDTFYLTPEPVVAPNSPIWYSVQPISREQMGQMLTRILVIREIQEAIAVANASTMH
UniProt Q15596: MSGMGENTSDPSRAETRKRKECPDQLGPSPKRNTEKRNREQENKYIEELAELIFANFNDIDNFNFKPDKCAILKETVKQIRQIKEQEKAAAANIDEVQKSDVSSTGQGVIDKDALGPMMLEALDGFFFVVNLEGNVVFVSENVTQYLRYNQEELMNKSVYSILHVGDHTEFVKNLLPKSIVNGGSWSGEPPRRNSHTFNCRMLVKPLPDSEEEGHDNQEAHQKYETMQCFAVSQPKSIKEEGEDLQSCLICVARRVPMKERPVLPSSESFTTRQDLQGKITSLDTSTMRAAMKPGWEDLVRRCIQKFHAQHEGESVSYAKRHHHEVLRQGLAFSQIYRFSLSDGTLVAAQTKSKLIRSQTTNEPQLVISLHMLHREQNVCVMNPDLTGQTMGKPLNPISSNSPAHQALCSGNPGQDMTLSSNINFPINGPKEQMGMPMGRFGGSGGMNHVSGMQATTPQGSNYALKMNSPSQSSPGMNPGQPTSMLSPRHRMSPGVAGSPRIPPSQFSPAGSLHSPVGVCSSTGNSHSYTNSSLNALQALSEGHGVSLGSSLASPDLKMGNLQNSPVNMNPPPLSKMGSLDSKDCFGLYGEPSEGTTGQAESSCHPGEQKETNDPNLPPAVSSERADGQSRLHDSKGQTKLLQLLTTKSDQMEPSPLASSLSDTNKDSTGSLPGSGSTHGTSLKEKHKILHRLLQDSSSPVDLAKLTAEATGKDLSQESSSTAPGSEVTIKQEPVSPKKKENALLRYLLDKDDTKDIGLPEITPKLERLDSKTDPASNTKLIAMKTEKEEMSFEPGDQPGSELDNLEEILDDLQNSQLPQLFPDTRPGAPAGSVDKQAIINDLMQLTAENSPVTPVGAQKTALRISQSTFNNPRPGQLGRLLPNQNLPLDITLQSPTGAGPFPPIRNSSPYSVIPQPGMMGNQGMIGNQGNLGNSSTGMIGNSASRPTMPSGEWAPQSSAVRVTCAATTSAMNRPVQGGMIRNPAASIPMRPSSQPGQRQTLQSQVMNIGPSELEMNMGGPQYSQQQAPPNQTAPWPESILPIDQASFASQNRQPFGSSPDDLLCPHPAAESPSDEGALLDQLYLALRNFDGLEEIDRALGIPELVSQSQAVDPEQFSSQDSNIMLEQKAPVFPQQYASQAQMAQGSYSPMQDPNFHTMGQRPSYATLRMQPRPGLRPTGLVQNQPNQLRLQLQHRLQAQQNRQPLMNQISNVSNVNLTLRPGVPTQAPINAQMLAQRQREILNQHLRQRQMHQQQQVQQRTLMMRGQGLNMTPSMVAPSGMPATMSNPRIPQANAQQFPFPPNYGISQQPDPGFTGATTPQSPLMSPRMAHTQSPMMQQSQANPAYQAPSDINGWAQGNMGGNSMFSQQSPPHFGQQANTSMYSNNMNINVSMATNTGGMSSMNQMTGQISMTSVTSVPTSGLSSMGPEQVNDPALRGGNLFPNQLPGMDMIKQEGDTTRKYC
UniProt Q8NDD1: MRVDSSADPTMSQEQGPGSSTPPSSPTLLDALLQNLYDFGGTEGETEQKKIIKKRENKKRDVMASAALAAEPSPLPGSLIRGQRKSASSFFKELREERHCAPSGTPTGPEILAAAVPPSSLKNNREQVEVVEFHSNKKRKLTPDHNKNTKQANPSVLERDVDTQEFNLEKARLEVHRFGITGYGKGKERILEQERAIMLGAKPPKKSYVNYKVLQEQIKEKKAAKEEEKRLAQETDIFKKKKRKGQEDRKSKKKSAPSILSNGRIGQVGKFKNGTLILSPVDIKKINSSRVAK
UniProt Q15427: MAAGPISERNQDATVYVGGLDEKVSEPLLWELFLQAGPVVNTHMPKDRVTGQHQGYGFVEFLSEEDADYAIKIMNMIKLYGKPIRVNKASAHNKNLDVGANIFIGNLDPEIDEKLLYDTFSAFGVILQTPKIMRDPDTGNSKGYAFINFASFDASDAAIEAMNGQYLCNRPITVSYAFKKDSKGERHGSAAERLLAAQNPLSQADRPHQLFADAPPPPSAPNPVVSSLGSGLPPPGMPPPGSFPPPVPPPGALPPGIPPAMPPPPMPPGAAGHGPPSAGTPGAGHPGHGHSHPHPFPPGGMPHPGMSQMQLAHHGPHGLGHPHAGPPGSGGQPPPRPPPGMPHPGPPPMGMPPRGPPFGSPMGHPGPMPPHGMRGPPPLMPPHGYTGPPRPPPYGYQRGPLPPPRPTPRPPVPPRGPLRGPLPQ
UniProt Q5FWF5: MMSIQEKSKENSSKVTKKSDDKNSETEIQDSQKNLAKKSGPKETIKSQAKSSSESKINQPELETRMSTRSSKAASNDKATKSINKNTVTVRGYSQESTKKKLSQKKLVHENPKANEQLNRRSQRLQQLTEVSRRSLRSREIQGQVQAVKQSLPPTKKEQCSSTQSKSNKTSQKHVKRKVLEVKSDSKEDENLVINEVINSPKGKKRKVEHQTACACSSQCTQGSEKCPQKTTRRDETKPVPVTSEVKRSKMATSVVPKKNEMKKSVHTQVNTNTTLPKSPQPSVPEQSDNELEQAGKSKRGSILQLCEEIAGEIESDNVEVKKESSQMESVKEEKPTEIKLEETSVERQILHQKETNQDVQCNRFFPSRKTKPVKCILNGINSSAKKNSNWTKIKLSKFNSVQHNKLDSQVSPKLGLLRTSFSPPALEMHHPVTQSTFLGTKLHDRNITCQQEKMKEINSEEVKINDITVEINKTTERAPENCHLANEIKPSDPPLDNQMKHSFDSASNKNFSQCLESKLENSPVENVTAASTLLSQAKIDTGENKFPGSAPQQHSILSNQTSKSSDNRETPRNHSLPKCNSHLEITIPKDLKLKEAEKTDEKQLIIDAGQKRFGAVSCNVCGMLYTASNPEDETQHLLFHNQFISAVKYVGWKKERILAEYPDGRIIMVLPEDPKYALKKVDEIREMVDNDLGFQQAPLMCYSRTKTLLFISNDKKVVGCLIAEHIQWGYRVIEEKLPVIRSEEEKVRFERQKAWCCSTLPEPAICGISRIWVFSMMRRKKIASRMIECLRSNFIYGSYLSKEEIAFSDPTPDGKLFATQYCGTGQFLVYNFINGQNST
UniProt Q3SXY8: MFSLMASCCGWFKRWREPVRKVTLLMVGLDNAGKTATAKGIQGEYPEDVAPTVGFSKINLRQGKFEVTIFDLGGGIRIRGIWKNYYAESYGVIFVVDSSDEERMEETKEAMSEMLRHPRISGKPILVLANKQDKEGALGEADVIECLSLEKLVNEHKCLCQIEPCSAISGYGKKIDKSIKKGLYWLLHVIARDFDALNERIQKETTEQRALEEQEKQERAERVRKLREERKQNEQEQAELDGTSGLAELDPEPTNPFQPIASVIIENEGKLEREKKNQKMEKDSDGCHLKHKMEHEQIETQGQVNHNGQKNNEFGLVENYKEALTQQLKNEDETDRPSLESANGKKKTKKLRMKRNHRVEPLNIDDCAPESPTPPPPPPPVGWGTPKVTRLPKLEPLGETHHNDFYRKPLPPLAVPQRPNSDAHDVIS
UniProt Q15437: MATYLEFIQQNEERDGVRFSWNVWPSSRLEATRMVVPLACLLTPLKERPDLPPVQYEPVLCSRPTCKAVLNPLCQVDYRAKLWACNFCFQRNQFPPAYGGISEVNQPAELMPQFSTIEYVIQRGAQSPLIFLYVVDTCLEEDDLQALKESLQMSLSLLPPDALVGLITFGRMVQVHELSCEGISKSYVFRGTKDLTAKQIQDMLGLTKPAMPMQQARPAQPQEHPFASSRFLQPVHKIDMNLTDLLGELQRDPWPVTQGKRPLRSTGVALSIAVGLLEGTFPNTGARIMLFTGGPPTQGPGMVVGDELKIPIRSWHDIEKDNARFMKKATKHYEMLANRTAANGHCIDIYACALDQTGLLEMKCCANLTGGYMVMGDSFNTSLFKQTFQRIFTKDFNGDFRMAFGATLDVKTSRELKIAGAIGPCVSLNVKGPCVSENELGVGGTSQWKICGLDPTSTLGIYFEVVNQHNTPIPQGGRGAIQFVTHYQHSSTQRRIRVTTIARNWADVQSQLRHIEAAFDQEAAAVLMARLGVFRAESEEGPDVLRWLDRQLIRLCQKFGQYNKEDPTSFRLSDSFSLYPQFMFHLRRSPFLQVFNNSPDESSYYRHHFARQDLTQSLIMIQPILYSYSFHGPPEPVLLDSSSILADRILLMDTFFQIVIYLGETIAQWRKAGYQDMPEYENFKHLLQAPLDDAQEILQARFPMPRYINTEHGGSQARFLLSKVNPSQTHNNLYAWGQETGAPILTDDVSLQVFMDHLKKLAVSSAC
UniProt Q1MSJ5: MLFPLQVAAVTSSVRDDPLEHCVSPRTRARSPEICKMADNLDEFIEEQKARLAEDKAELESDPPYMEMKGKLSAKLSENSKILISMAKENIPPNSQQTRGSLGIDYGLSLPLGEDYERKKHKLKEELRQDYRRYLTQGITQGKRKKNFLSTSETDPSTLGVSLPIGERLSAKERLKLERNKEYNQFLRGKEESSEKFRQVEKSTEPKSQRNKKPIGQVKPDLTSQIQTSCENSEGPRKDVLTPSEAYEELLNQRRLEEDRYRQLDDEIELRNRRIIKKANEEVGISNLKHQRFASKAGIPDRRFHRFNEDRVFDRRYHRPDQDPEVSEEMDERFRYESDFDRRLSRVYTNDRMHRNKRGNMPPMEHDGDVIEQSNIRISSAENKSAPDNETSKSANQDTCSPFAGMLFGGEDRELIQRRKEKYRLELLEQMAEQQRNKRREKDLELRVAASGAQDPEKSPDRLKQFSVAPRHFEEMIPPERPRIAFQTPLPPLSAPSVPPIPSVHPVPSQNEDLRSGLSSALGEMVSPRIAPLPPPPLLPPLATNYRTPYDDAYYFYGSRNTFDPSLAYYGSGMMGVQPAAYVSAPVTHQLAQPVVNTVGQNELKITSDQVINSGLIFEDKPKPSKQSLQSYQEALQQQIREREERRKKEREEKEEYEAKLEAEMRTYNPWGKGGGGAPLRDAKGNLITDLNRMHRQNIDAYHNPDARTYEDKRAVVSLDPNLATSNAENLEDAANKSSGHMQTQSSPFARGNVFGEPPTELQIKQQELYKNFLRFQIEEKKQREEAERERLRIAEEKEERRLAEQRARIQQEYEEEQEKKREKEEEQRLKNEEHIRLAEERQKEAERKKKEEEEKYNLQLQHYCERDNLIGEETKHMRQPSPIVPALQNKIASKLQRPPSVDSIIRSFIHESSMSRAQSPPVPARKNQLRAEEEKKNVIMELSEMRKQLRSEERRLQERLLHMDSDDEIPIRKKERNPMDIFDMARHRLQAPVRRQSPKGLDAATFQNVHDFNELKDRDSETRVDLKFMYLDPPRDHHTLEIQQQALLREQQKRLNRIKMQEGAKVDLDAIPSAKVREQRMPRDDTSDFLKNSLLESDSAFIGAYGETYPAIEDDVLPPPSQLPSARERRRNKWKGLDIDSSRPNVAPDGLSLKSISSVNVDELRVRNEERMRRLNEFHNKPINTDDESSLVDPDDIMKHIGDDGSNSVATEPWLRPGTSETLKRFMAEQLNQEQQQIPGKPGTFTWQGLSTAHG

Compound: Nc1ncnc2c1ncn2[C@@H]1O[C@H](COP(=O)(O)OP(=O)(O)NP(=O)(O)O)[C@@H](O)[C@H]1O [adenylyl imidodiphosphate]
Assay: NP40-soluble protein abundance relative to vehicle (solubility fold change) (ratio); higher = more soluble protein in presence of AMP-PNP
In short: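 Data come from three independent experiments in which Dounce-homogenised Jurkat crude lysate was treated at eight concentrations from 0.1 to 10 mM. Treatment ran 10 min at room temperature and then 3 min at 37 °C, after which 0.8% NP40 and benzonase were added for 60 min at 4 °C before ultracentrifugation. The supernatant underwent TMT labelling and LC-MS/MS, and vsn-normalised intensities were expressed as fold change against the detergent-processed vehicle in each replicate.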

Target	NP40-soluble protein abundance (concentration: 1mM)	NP40-soluble protein abundance (concentration: 2mM)	NP40-soluble protein abundance (concentration: 4mM)	NP40-soluble protein abundance (concentration: 6mM)	NP40-soluble protein abundance (concentration: 8mM)	NP40-soluble protein abundance (concentration: 10mM)
UniProt Q5SWX8	0.983 ± 0.015	0.966 ± 0.042	0.9843 ± 0.0077	0.981 ± 0.042	1.02 ± 0.018	1.01 ± 0.015
Q5TH30 and related entries (UniProt Q9UGV2)	1.06 ± 0.024	1.07 ± 0.056	1.05 ± 0.042	1.02 ± 0.024	1.03 ± 0.016	1.01 ± 0.046
UniProt Q16666 and related entries	1.06 ± 0.052	1.11 ± 0.023	1.22 ± 0.069	1.43 ± 0.14	1.49 ± 0.14	1.53 ± 0.19
LYRM7 (UniProt Q5U5X0)	0.963 ± 0.026	1 ± 0.037	0.939 ± 0.052	0.894 ± 0.035	0.871 ± 0.027	0.862 ± 0.06
GFOD2 (UniProt Q3B7J2)	0.984 ± 0.011	0.916 ± 0.068	0.9484 ± 0.0064	0.948 ± 0.017	0.977 ± 0.018	0.921 ± 0.021
UniProt Q53HC0 and related entries	0.976 ± 0.018	1.0169 ± 0.00039	0.984 ± 0.024	0.985 ± 0.03	0.9998 ± 0.0068	0.976 ± 0.019
RSU1 (UniProt Q15404)	1 ± 0.024	0.995 ± 0.032	1.02 ± 0.035	1.01 ± 0.053	1.01 ± 0.045	1.03 ± 0.073
UniProt Q16531 and related entries	0.959 ± 0.02	0.855 ± 0.11	0.925 ± 0.013	0.921 ± 0.028	0.9579 ± 0.004	0.908 ± 0.028
QRICH1 (UniProt Q2TAL8)	1.01 ± 0.016	1.01 ± 0.012	0.996 ± 0.036	0.99 ± 0.01	0.972 ± 0.019	0.994 ± 0.028
VPS26B (UniProt Q4G0F5)	0.919 ± 0.063	0.825 ± 0.16	0.9462 ± 0.006	0.906 ± 0.063	0.989 ± 0.02	0.9152 ± 0.008
UniProt Q52LJ0-2	0.966 ± 0.054	0.984 ± 0.034	0.985 ± 0.042	0.984 ± 0.029	0.998 ± 0.037	0.953 ± 0.048
Q5TZT0 and related entries (UniProt Q9NSU2)	0.9813 ± 0.0085	0.9854 ± 0.0071	0.9796 ± 0.007	0.968 ± 0.024	0.961 ± 0.028	0.972 ± 0.019
MED1 (UniProt Q15648)	1.05 ± 0.028	1.06 ± 0.046	1.07 ± 0.048	1.07 ± 0.038	1.06 ± 0.026	1.1 ± 0.061
UniProt Q5M775 and related entries	0.945 ± 0.062	0.89 ± 0.032	0.95 ± 0.05	1.04 ± 0.032	1.01 ± 0.031	0.992 ± 0.059
UniProt Q16630-2|Q16630	1.067 ± 0.004	1.12 ± 0.043	1.149 ± 0.0081	1.22 ± 0.025	1.3 ± 0.017	1.51 ± 0.045
UniProt Q5TA45 and related entries	0.966 ± 0.061	0.924 ± 0.015	1 ± 0.042	1.04 ± 0.039	1.04 ± 0.047	1.03 ± 0.035
UniProt Q15438 and related entries	1 ± 0.027	0.977 ± 0.038	1.01 ± 0.03	0.957 ± 0.02	0.9798 ± 0.0091	0.964 ± 0.037
UniProt Q16537 and related entries	1 ± 0.012	0.937 ± 0.024	0.963 ± 0.019	0.946 ± 0.015	0.956 ± 0.036	0.9033 ± 0.0089
TRADD (UniProt Q15628)	0.967 ± 0.037	0.925 ± 0.048	0.955 ± 0.059	0.949 ± 0.021	0.9347 ± 0.0022	0.904 ± 0.013
UniProt Q3KQU3-4|Q3KQU3	1.08 ± 0.018	1.16 ± 0.09	1.13 ± 0.035	1.065 ± 0.0046	1.03 ± 0.047	1.07 ± 0.043

Target	NP40-soluble protein abundance (concentration: 1mM)	NP40-soluble protein abundance (concentration: 2mM)	NP40-soluble protein abundance (concentration: 4mM)	NP40-soluble protein abundance (concentration: 6mM)	NP40-soluble protein abundance (concentration: 8mM)	NP40-soluble protein abundance (concentration: 10mM)
UniProt Q4ADV7 and related entries	0.943 ± 0.026	0.963 ± 0.043	0.9491 ± 0.0042	0.937 ± 0.029	0.924 ± 0.014	0.92 ± 0.011
UniProt Q15291 and related entries	1.01 ± 0.065	0.982 ± 0.052	1.03 ± 0.043	1.04 ± 0.063	1.08 ± 0.071	1.04 ± 0.062
TST (UniProt Q16762)	1.04 ± 0.04	0.997 ± 0.027	1.04 ± 0.048	1.03 ± 0.044	1.03 ± 0.088	1.01 ± 0.064
UniProt Q5T3F8 and related entries	1 ± 0.052	1.06 ± 0.1	1.01 ± 0.038	1.01 ± 0.019	0.985 ± 0.042	1.01 ± 0.049
RIF1 (UniProt Q5UIP0)	1.02 ± 0.022	1.06 ± 0.058	1.04 ± 0.034	1.05 ± 0.063	1.03 ± 0.084	1.08 ± 0.094
UniProt Q15596 and related entries	1.02 ± 0.042	1.03 ± 0.048	1.01 ± 0.037	0.984 ± 0.031	0.985 ± 0.011	0.994 ± 0.043
UniProt Q5JTJ3 and related entries	1.02 ± 0.015	1.04 ± 0.081	0.991 ± 0.038	0.97 ± 0.043	0.943 ± 0.016	0.966 ± 0.046
Q5TBH9 and related entries (UniProt Q8NDD1)	1.03 ± 0.072	1.11 ± 0.091	1.11 ± 0.09	1.15 ± 0.097	1.19 ± 0.084	1.21 ± 0.1
SF3B4 (UniProt Q15427)	1.06 ± 0.065	1.05 ± 0.014	1.1 ± 0.055	1.07 ± 0.028	1.11 ± 0.086	1.08 ± 0.061
UniProt Q5F1R6 and related entries	1.044 ± 0.0025	1.12 ± 0.041	1.123 ± 0.0067	1.11 ± 0.066	1.09 ± 0.019	1.11 ± 0.035
UniProt Q16512 and related entries	1.013 ± 0.01	1.01 ± 0.018	1.012 ± 0.0097	1.04 ± 0.054	1.03 ± 0.041	1.06 ± 0.038
CRTC2 (UniProt Q53ET0)	1 ± 0.015	1.04 ± 0.047	0.995 ± 0.025	0.959 ± 0.022	0.992 ± 0.025	0.978 ± 0.021
UniProt Q5FWF5	1.01 ± 0.012	1.012 ± 0.0086	1 ± 0.026	1.04 ± 0.035	1.029 ± 7.1e-05	1.06 ± 0.023
PTGES3 (UniProt Q15185)	1.01 ± 0.056	1.06 ± 0.12	1.01 ± 0.072	1.11 ± 0.083	1.11 ± 0.063	1.11 ± 0.048
UniProt Q3L8U1 and related entries	0.9909 ± 0.0089	1.02 ± 0.069	0.994 ± 0.053	0.996 ± 0.042	0.964 ± 0.013	0.964 ± 0.012
PPA1 (UniProt Q15181)	0.998 ± 0.025	0.987 ± 0.022	0.958 ± 0.027	1 ± 0.019	0.989 ± 0.021	0.989 ± 0.027
UniProt Q460N5 and related entries	1.02 ± 0.02	0.993 ± 0.046	1.04 ± 0.039	0.9762 ± 0.0066	1.01 ± 0.029	0.9765 ± 0.0028
TMED2 (UniProt Q15363)	0.927 ± 0.044	0.854 ± 0.095	0.882 ± 0.025	0.972 ± 0.045	0.977 ± 0.025	0.965 ± 0.065
ATP6AP1 (UniProt Q15904)	0.958 ± 0.041	0.954 ± 0.03	0.966 ± 0.049	0.977 ± 0.043	0.983 ± 0.011	0.982 ± 0.026
ARL13B (UniProt Q3SXY8)	1.015 ± 0.0088	1.035 ± 0.0051	1.03 ± 0.026	1.02 ± 0.014	0.982 ± 0.04	1 ± 0.077

Record cards (already shown).
UniProt Q4ADV7 and related entries as listed: NP40-soluble protein abundance (concentration: 1mM): 0.943 ± 0.026; NP40-soluble protein abundance (concentration: 2mM): 0.963 ± 0.043; NP40-soluble protein abundance (concentration: 4mM): 0.9491 ± 0.0042; NP40-soluble protein abundance (concentration: 6mM): 0.937 ± 0.029; NP40-soluble protein abundance (concentration: 8mM): 0.924 ± 0.014; NP40-soluble protein abundance (concentration: 10mM): 0.92 ± 0.011
ATP6AP1 (UniProt Q15904) as listed: NP40-soluble protein abundance (concentration: 1mM): 0.958 ± 0.041; NP40-soluble protein abundance (concentration: 2mM): 0.954 ± 0.03; NP40-soluble protein abundance (concentration: 4mM): 0.966 ± 0.049; NP40-soluble protein abundance (concentration: 6mM): 0.977 ± 0.043; NP40-soluble protein abundance (concentration: 8mM): 0.983 ± 0.011; NP40-soluble protein abundance (concentration: 10mM): 0.982 ± 0.026

Additional records.

Target	NP40-soluble protein abundance (concentration: 1mM)	NP40-soluble protein abundance (concentration: 2mM)	NP40-soluble protein abundance (concentration: 4mM)	NP40-soluble protein abundance (concentration: 6mM)	NP40-soluble protein abundance (concentration: 8mM)	NP40-soluble protein abundance (concentration: 10mM)
UniProt Q5JTD0 and related entries	1.018 ± 0.0073	1.03 ± 0.039	1.02 ± 0.027	1.01 ± 0.024	0.998 ± 0.014	1.02 ± 0.054
TSR1 (UniProt Q2NL82)	0.845 ± 0.036	0.855 ± 0.055	0.854 ± 0.076	0.885 ± 0.065	0.864 ± 0.059	0.9 ± 0.088
UniProt Q15542 and related entries	1.02 ± 0.015	0.988 ± 0.035	1.04 ± 0.048	1.06 ± 0.06	1.06 ± 0.032	1.09 ± 0.052
UniProt Q16656 and related entries	1.02 ± 0.083	1.02 ± 0.081	1.02 ± 0.049	0.99 ± 0.016	0.985 ± 0.041	1.01 ± 0.023
SEC23B (UniProt Q15437)	1.01 ± 0.023	0.95 ± 0.056	1.03 ± 0.011	0.999 ± 0.047	1.05 ± 0.025	0.9923 ± 0.0094
UniProt Q2M296 and related entries	0.97439 ± 0.00096	1.03 ± 0.039	1 ± 0.033	1.08 ± 0.071	1.08 ± 0.043	1.09 ± 0.1
Q5JQQ4 and related entries (UniProt Q9BVM2)	1.03 ± 0.021	0.995 ± 0.068	1.04 ± 0.035	1.006 ± 0.0038	1.06 ± 0.099	1.02 ± 0.032
UniProt Q5R372 and related entries	0.97 ± 0.054	0.944 ± 0.041	0.969 ± 0.029	0.917 ± 0.0092	0.905 ± 0.014	0.905 ± 0.046
UniProt Q1MSJ5 and related entries	1.016 ± 0.0053	1.029 ± 0.0052	0.99431 ± 0.00099	1.01 ± 0.024	1.02 ± 0.028	1.01 ± 0.011
TAF9 (UniProt Q16594)	1.009 ± 0.0054	1.04 ± 0.02	1.01 ± 0.018	1.01 ± 0.018	1.03 ± 0.016	1.05 ± 0.039
TAF11 (UniProt Q15544)	1.01 ± 0.002	1.03 ± 0.022	1.06 ± 0.012	1.04 ± 0.045	1.05 ± 0.039	1.05 ± 0.085
SF3B3 (UniProt Q15393)	0.961 ± 0.036	0.899 ± 0.077	0.978 ± 0.058	1.06 ± 0.026	1.1 ± 0.029	1.07 ± 0.083
Q5T1J5 and related entries (UniProt Q9Y6H1+Q5T1J5)	1.03 ± 0.013	1.04 ± 0.097	1.02 ± 0.033	0.929 ± 0.031	0.966 ± 0.014	0.946 ± 0.015
UniProt Q16851 and related entries	0.977 ± 0.02	0.919 ± 0.051	0.962 ± 0.032	0.957 ± 0.031	0.975 ± 0.044	0.955 ± 0.06
C5orf22 (UniProt Q49AR2)	1.02 ± 0.015	1.02 ± 0.014	1.05 ± 0.017	0.983 ± 0.013	0.978 ± 0.041	1 ± 0.023
UniProt Q5T0N5-4	1.02 ± 0.03	1.04 ± 0.027	1.007 ± 0.0026	0.994 ± 0.019	0.959 ± 0.0097	0.997 ± 0.036
UniProt Q53GL0	1.05 ± 0.042	1.13 ± 0.035	1.06 ± 0.013	1.05 ± 0.036	1.03 ± 0.019	1.07 ± 0.013
UniProt Q27J81 and related entries	1.015 ± 0.0078	1.05 ± 0.022	1.03 ± 0.016	0.9949 ± 0.0027	0.985 ± 0.011	1.03 ± 0.068
UniProt Q16513 and related entries	0.995 ± 0.028	1.07 ± 0.044	1.07 ± 0.093	1 ± 0.065	0.988 ± 0.047	0.984 ± 0.063
UniProt Q2KHR3 and related entries	1.017 ± 0.0039	0.9946 ± 0.0019	1.025 ± 0.0071	0.99367 ± 0.00071	0.993 ± 0.033	1.01 ± 0.023

As entered above.
In NP40-soluble protein abundance (concentration: 4mM), UniProt Q15542 and related entries is listed with 1.04 ± 0.048
In NP40-soluble protein abundance (concentration: 6mM), UniProt Q5T3F8 and related entries is listed with 1.01 ± 0.019
